According to PMC4051986:

Molecular target: FANCB with a C-terminal protein G-streptavidin binding peptide (GS) tag (chicken)
Test: affinity purification with mass spectrometry; tandem affinity purification of FANCB-GS from ΔFANCB/FANCB-GS DT40 lysate at 4°C: IgG-agarose, TEV elution, streptavidin resin, biotin elution; 50 mM HEPES pH 8.0, 150 mM NaCl; SDS-PAGE bands identified by tandem mass spectrometry, FANCG and FANCM also by western blotting; the remaining subunits were also recovered from ΔFANCC cells

binding: no binding
B1: FAAP16 (protein, UniProt E1BSW7 1-139)
chain: MEAAGGEQRELLIQRLRAAVHYTTGCLCQDVAEDKGVLFSKQTVAAISEITFRQCENFARDLEMFARHAKRSTITSEDVKLLARRSNSLLKYITQKSDELASSNMEQKEKKKKKSSAAKGRKTEENETPVTESEDSNMA

binding: no binding
B2: FAAP10 (protein, UniProt P0DJH7 1-80)
chain: MEEREGGFRKETVERLLRLHFRDGRTRVNGDALLLMAELLKVFVREAAARAARQAQAEDLEKVDIEHVEKVLPQLLLDFV

No constants are given. Whether binding was seen depends on the method and setting. In cells and extracts the contact can be indirect. A yes stands for co-enrichment or nearness to the bait. Other partners may have been found. A no says only that the protein was not detected with the bait. One block for each binder: values may come before it.
